From publication PMC7819943, “Rice protein-binding microarrays: a tool to detect cis-acting elements near promoter regions in rice”
Some of the results follow.

Each sequence was assayed against T1, OsSMF1 (Oryza sativa, UniProt Q6ZLB0 1-436) (assay: protein-binding microarray (RPBM); PBS, 2% BSA, 51.3 ng/ul salmon testes DNA, 50 uM zinc acetate, 200 nM TF, 25 C, 1 h; high values mean tight binding). Details: protein: recombinant; tags: N-terminal polyhistidine and DsRed monomer fusion (pET32a); chain copies: 2; label: CyDye5-dUTP incorporated in the synthesized complementary strand; 3' TTTTT single-stranded linker to array surface; dsDNA, one strand shown.
T1 sequence: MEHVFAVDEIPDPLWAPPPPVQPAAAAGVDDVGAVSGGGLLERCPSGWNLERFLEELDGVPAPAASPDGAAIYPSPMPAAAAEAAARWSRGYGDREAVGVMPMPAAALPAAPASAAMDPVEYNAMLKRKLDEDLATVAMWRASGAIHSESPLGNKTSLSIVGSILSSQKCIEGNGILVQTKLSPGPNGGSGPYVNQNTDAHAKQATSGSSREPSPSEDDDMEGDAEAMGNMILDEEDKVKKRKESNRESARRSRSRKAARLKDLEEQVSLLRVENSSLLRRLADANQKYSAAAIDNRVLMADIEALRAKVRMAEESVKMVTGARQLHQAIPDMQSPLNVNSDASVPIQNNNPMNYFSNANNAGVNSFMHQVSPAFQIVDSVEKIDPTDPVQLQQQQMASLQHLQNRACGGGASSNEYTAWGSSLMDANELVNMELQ
In short: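 The binding signal for each feature is its fluorescence intensity in arbitrary units. An Axon 4000B scanner was used to read a custom Agilent array that had been made double-stranded with Cy5-dUTP primer extension, blocked with 2% BSA, incubated at 25 °C for 1 h with 200 nM protein in PBS, 2% BSA, salmon testes DNA and 50 µM zinc acetate, and washed. The protein was an N-terminal polyhistidine–DsRed transcription factor fusion from E. coli BL21-CodonPlus, purified on Ni–NTA.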
“AAATAAAAGTTCCTCACACGCACGCCCACGTCAGCGCATCCGGAGTCACCTAGTGCAG” was tested, and the binding signal was 20400 fluorescence intensity (a.u.).
“GAAGTATCAGAGACAGTTGCTGATGTGGTCCAACTTTCTACGGAGTCACCTAGTGCAG” was tested, and the binding signal was 6090 fluorescence intensity (a.u.).
For “AGTGTATCCACATGGTCGAAGGTCGGTGTCATCACGATGACGGAGTCACCTAGTGCAG”, the binding signal was 3900 fluorescence intensity (a.u.).
“TTTGTGCGTGTTACGAGTGACTTGCGTTTATATCCTGCTTCGGAGTCACCTAGTGCAG” was tested, and the binding signal was 6490 fluorescence intensity (a.u.).
For “GCCGGATCAGGCGCGTCGGTGTGGAGGAATCGGCAGGGGTCGGAGTCACCTAGTGCAG”, the binding signal was 3820 fluorescence intensity (a.u.).
“GGCATTGATTCCCTGCTCGTTCATGTAAATGCGGCCATGTCGGAGTCACCTAGTGCAG” was tested, and the binding signal was 6470 fluorescence intensity (a.u.).
With “CAGCTTCTGAACAATCCACCGAATTGGCTCACGCGCTCAACGGAGTCACCTAGTGCAG” the binding signal was 20300 fluorescence intensity (a.u.).
For “ATTCCTTCGTCTGTTGCTGCTGACTGCGCGGGGCGGAAGACGGAGTCACCTAGTGCAG”, the binding signal was 3600 fluorescence intensity (a.u.).
For “AAGGAATAAATACGTGTCGACCAATGATTGAACCACACAACGGAGTCACCTAGTGCAG”, the binding signal was 5350 fluorescence intensity (a.u.).
In the case of “ACGACACTACCAATTGTTTGGCCTTCAATCCAAACTAGCACGGAGTCACCTAGTGCAG”, the binding signal was 3500 fluorescence intensity (a.u.).
“CTGCTGTATGTCATGACGCAGACTGAAATGCTACTCAAATCGGAGTCACCTAGTGCAG” was tested, and the binding signal was 4130 fluorescence intensity (a.u.).
In the case of “GTAGTATTACGCAGTTCGCACACTATACTCCGATCCGGCCCGGAGTCACCTAGTGCAG”, the binding signal was 15800 fluorescence intensity (a.u.).
With “CCGCCTCCTCACTCACTCCCCTCCCCACCACGCACGCACCCGGAGTCACCTAGTGCAG” the binding signal was 5210 fluorescence intensity (a.u.).
With “ATTGGAAGCATATACATTCGTGATATCAAATGAGATGAGTCGGAGTCACCTAGTGCAG” the binding signal was 3520 fluorescence intensity (a.u.).
“AAATCAAAATCATTTGCGTCAAATCACATTGGCATGCTCACGGAGTCACCTAGTGCAG” was tested, and the binding signal was 3280 fluorescence intensity (a.u.).
In the case of “TTAAATACTCAGCTTGCGCTAGATTATAAATTCAACAAGACGGAGTCACCTAGTGCAG”, the binding signal was 3310 fluorescence intensity (a.u.).
For “GGCGAACCGGACACGCAGCCACGCAGGTCGCCATGGCCGACGGAGTCACCTAGTGCAG”, the binding signal was 3200 fluorescence intensity (a.u.).
For “ACGCCATGTGCTGGACAGTCTCACTGGGTTTTGTTGCGGGCGGAGTCACCTAGTGCAG”, the binding signal was 27100 fluorescence intensity (a.u.).
In the case of “TCCCGAAACCCGACACGCGGCACCGATCGATCGATCGATCCGGAGTCACCTAGTGCAG”, the binding signal was 3240 fluorescence intensity (a.u.).
With “GGCGTGGCCACCTGCGCGTGCTGACGCGTCAGCGAGGCGCCGGAGTCACCTAGTGCAG” the binding signal was 14700 fluorescence intensity (a.u.).
For “TGTGAAGACCCTGGATGACTCCTCCGTCACTGAAGCATCCCGGAGTCACCTAGTGCAG”, the binding signal was 3820 fluorescence intensity (a.u.).
In the case of “ATTTAGACTGCACAAATGCAGGGCCACATGTGTCACGCCCCGGAGTCACCTAGTGCAG”, the binding signal was 3860 fluorescence intensity (a.u.).
In the case of “GAACTTGAGAAGGAAAGACGCAGGTGCGCTCTCTGAGGGGCGGAGTCACCTAGTGCAG”, the binding signal was 3210 fluorescence intensity (a.u.).
With “ACGGACTTGTTGCGTGCGTGTGTGCCCATGGATTTGAACTCGGAGTCACCTAGTGCAG” the binding signal was 3500 fluorescence intensity (a.u.).
With “AATTTTGACGTGTCACGTCAGATATACGGACATACATTTGCGGAGTCACCTAGTGCAG” the binding signal was 17300 fluorescence intensity (a.u.).
“AGCCAGATTTGTTGTCTTAGAAGGGATCACATGACTCATACGGAGTCACCTAGTGCAG” was tested, and the binding signal was 7180 fluorescence intensity (a.u.).
“ATCTCCTGGAACACGTACTTTGCATTTCCCGTTTTCCAGCCGGAGTCACCTAGTGCAG” was tested, and the binding signal was 4460 fluorescence intensity (a.u.).
“TTAAGGTGGCGGCCTCAAGATTTGGTGGCAGCGTCAACTGCGGAGTCACCTAGTGCAG” was tested, and the binding signal was 3890 fluorescence intensity (a.u.).
In the case of “AAAACCGTGGATATGCATAATACGTCGTGATCGTGTCATTCGGAGTCACCTAGTGCAG”, the binding signal was 4440 fluorescence intensity (a.u.).
For “CCGTCAACCTCGCCGTGCGCCTCCCCGAGCCCGACGACGGCGGAGTCACCTAGTGCAG”, the binding signal was 27000 fluorescence intensity (a.u.).
With “ATCATCCATGGACCATGGTTCAATTCGTGGCAACTTAACCCGGAGTCACCTAGTGCAG” the binding signal was 3510 fluorescence intensity (a.u.).
In the case of “GTGGGGCCCGTTTGACCGTTTGACAGGTGGCGCGATTTTCCGGAGTCACCTAGTGCAG”, the binding signal was 3500 fluorescence intensity (a.u.).
With “CTCTCTCTCTCTCTCTCTCTCTATATATATATATATATATCGGAGTCACCTAGTGCAG” the binding signal was 3780 fluorescence intensity (a.u.).
For “TGCCCTTATTTGCCCAATCACTAAGCGGATGATGACTAACCGGAGTCACCTAGTGCAG”, the binding signal was 3360 fluorescence intensity (a.u.).
For “CCCATCTCACCAGTGACGTGCTTCTTCATCATCCCTATATCGGAGTCACCTAGTGCAG”, the binding signal was 6700 fluorescence intensity (a.u.).
With “TTGGATGTTCTTCCCGTTGTTGTGTTTTATCATGTGCCTTCGGAGTCACCTAGTGCAG” the binding signal was 3330 fluorescence intensity (a.u.).
With “TAATGGGGCATATTCGTGGGTGTGTAAGTATAACGTTATACGGAGTCACCTAGTGCAG” the binding signal was 3960 fluorescence intensity (a.u.).
With “GCTGGGCCGTCAGCCCACACGTGCGAGTCACGGGCCCACGCGGAGTCACCTAGTGCAG” the binding signal was 4500 fluorescence intensity (a.u.).
In the case of “GACCGAGACTCCCTGACTTGGCGCCAGGCAAAACCACCATCGGAGTCACCTAGTGCAG”, the binding signal was 4230 fluorescence intensity (a.u.).
With “CATGCTGCCAACTCTGCAATTCTGATGTCCATTGCCAATCCGGAGTCACCTAGTGCAG” the binding signal was 4420 fluorescence intensity (a.u.).
For “TCCTGCCTCCTCCCGAAATTCGCAAGTGTCACTAGTTAACCGGAGTCACCTAGTGCAG”, the binding signal was 3420 fluorescence intensity (a.u.).
In the case of “CCGTCAGATTCCGCCGCCACTATTATCGTCTTCCTCAAGTCGGAGTCACCTAGTGCAG”, the binding signal was 3500 fluorescence intensity (a.u.).
